Here are results for one sequence from publication PMC9920513.

By UniProt entry, the sequences of proteins in these tests, tags left out. Residues count along the entry.
UniProt P02769, 25-607: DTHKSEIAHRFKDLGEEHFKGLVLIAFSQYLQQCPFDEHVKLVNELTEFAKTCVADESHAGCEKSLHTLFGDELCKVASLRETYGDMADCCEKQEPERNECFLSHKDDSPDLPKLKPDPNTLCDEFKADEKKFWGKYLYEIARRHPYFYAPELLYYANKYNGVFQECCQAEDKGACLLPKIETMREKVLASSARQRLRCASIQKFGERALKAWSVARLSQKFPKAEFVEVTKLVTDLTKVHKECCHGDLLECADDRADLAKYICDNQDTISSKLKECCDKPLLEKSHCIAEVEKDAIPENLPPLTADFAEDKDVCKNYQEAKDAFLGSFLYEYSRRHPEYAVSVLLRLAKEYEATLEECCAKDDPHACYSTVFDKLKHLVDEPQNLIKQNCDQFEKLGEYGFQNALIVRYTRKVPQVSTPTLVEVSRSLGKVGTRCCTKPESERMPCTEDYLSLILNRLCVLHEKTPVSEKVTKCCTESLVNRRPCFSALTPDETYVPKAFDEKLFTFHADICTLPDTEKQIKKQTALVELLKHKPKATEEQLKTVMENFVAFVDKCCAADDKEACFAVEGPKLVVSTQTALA

Negatives hold for the conditions tested.

One data set addresses BSA (UniProt P02769). The data set can be described thus: fluorescent aptamer sensor (amplified, indirect). Conditions: 1 ng/mL, primer-3, KF, Nb.BbvCI, MB, Mg2+, 100 nM H probe, 100 nM primer-3, 5 U KF, 5 U Nb.BbvCI, 25 uM dNTPs, 37 C 60 min, then HEPES detection buffer with 300 nM MB and 20 mM Mg2+, pH and salt not given, folded or branched DNA.
Another data set addresses HSA (UniProt P02768). The data set can be described thus: fluorescent aptamer sensor (amplified, indirect). The settings on record: 1 ng/mL, primer-3, KF, Nb.BbvCI, MB, Mg2+, 100 nM H probe, 100 nM primer-3, 5 U KF, 5 U Nb.BbvCI, 25 uM dNTPs, 37 C 60 min, then HEPES detection buffer with 300 nM MB and 20 mM Mg2+, pH and salt not given, folded or branched DNA.

Turning to “ATGCTTGGTACATGGGTGATCGCTGTCGGTATTCCTCAGCCAATACCAGCTTATTCAATTCCAGCTCCTCAGCGTATACTGGAATTGAATC [H probe (CEA aptamer hairpin)]”, the binding result with BSA and with HSA was “no binding” throughout.
